Reference: US20060264460A1 (Wyeth, priority 2005, published 2006)

Chains of the proteins cited; added tags and fusions are not shown. Residues count along the entry.
UniProt P41279, 30-398 limits assumed: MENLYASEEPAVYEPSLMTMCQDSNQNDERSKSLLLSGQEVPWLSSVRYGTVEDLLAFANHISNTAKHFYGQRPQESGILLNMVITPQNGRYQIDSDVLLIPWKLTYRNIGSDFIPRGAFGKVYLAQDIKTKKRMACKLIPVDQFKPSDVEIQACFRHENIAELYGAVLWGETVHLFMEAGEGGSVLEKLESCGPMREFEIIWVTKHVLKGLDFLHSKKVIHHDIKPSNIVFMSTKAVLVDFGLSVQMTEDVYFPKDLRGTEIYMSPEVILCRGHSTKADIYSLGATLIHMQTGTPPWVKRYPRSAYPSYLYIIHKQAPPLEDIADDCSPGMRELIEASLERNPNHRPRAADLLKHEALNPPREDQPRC

Target: human Cot/Tpl2 kinase (Homo sapiens, UniProt P41279)
Experiment: Tpl2/Cot kinase assay: GST-MEK1 phosphorylation detected by ELISA (DELFIA Eu)
Type: biochemical
Details: Table 2, GST-MEK1 substrate, 50 uM ATP

IC50: 45 nM
Structure (SMILES): N#Cc1cnc2c(Cl)cc(NCc3cn(CCC4CCNCC4)nn3)cc2c1Nc1ccc(F)c(Cl)c1 [Example 692]

Structures were worked out from names or drawings and are uncertain.
